According to PubChem BioAssay AID328 (DTP/NCI, 2004):
The list is a part of this screen's results and no random one: it is rich in T/C values a quarter to a half above the control, in often repeated tests (any T/C) and in doses without a T/C. Other doses and runs of a compound stand elsewhere. T/C: endpoint of the treated group in % of that of the vehicle group. Some entries give survivors of the animals treated and no T/C: the source holds a T/C of zero for them, seemingly a mark for toxic or unscored doses. Some survivor counts are full or nearly so, which does not show that the dose was tolerated: the source hardly ever lists a survival T/C far under the control, and the zero likely stands for such cases as well. Survivors were counted at the toxicity check, usually on the fifth day, unless a day is given; later deaths do not show. Schedules are NCI's codes, taken here to give the interval after Q, in days (D) or hours (H), and the number of doses after X. Brackets with × stand for listed records that agree. Some doses were run more than once; the results are listed from low to high. Where survival is the endpoint, the PubChem record calls one and a half times the control and up active, and a quarter to a half above the control has no call in these data; cut-offs in other NCI protocols can differ. Some T/C values carry the count of animals alive at the toxicity check (mostly the fifth day); where none is given, no animal had died by that day.

System: BDF1 mice, P388 leukemia ip, median survival T/C
Experiment: NCI In Vivo Anticancer Drug Screen. Data for tumor model P388 Leukemia (intraperitoneal) in B6D2F1 (BDF1) mice
Conditions: T/C endpoint: median survival time, higher T/C = longer survival
Outline: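 T/C = treated-group survival ÷ vehicle-control survival; tumour transplanted into mice before dosing.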

[1] = dose: 32.0 mg/kg/injection, schedule: Q01DX001 (oral), vehicle: saline

COC(=O)[C@@H](O)[C@](O)(CCC(C)C)C(=O)O[C@@H]1C(OC)=C[C@]23CCCN2CCc2cc4c(cc2[C@H]13)OCO4
T/C (dose: 0.75 mg/kg/injection, schedule: Q01DX010 (ip), vehicle: saline): 140 % of control
T/C (dose: 0.94 mg/kg/injection, schedule: Q01DX009 (ip), vehicle: saline): 125 % of control
T/C (dose: 1.0 mg/kg/injection, schedule: Q03HX008 (ip), vehicle: saline): 144 % of control
T/C (dose: 1.5 mg/kg/injection, schedule: Q01DX010 (ip), vehicle: saline): 136 % of control
T/C (dose: 1.88 mg/kg/injection, schedule: Q01DX009 (ip), vehicle: saline): 129 % of control
T/C (dose: 2.0 mg/kg/injection, schedule: Q01DX006 (iv), vehicle: saline): 133 % of control
T/C (dose: 2.0 mg/kg/injection, schedule: Q01DX009 (ip), vehicle: saline, evaluated on day 30): 127 % of control
T/C (dose: 2.0 mg/kg/injection, schedule: Q01DX009 (ip), vehicle: saline, evaluated on day 60): 144 % of control
T/C (dose: 2.0 mg/kg/injection, schedule: Q01DX009 (sc), vehicle: saline): 144 % of control
T/C (dose: 2.0 mg/kg/injection, schedule: Q03HX016 (ip), vehicle: saline): 125 % of control
T/C (dose: 3.0 mg/kg/injection, schedule: Q01DX009 (ip), vehicle: saline): 136 % of control
T/C (dose: 3.0 mg/kg/injection, schedule: Q01DX010 (ip), vehicle: saline): 139 % of control
T/C (dose: 3.75 mg/kg/injection, schedule: Q01DX009 (ip), vehicle: saline): 133 % of control
T/C (dose: 4.0 mg/kg/injection, schedule: Q01DX009 (ip), vehicle: saline, evaluated on day 30): 154 and 200 % of control
T/C (dose: 4.0 mg/kg/injection, schedule: Q01DX009 (ip), vehicle: saline, evaluated on day 60): 130 [9 of 10 alive] and 188 % of control
T/C (dose: 4.0 mg/kg/injection, schedule: Q01DX009 (oral), vehicle: saline): 135 % of control
survivor count (dose: 4.0 mg/kg/injection, schedule: Q03HX016 (ip), vehicle: saline): 6 of 10
survivor count (dose: 4.0 mg/kg/injection, schedule: Q03HX024 (ip), vehicle: saline): 7 of 10
T/C (dose: 4.0 mg/kg/injection, schedule: Q04DX003 (ip), vehicle: saline): 138 % of control
T/C (dose: 8.0 mg/kg/injection, schedule: Q01DX001 (ip), vehicle: saline): 133 % of control
T/C (dose: 8.0 mg/kg/injection, schedule: Q01DX001 (iv), vehicle: saline): 138 % of control
T/C (dose: 8.0 mg/kg/injection, schedule: Q01DX001 (sc), vehicle: saline): 138 % of control
T/C (dose: 8.0 mg/kg/injection, schedule: Q01DX009 (oral), vehicle: saline, evaluated on day 30): 145 % of control
T/C (dose: 8.0 mg/kg/injection, schedule: Q01DX009 (oral), vehicle: saline, evaluated on day 60): 140 % of control
survivor count (dose: 8.0 mg/kg/injection, schedule: Q03HX008 (ip), vehicle: saline): 0 of 10
survivor count (dose: 8.0 mg/kg/injection, schedule: Q03HX016 (ip), vehicle: saline): 0 of 10
survivor count (dose: 8.0 mg/kg/injection, schedule: Q03HX024 (ip), vehicle: saline): 0 of 10
survivor count (dose: 12.0 mg/kg/injection, schedule: Q01DX009 (ip), vehicle: saline): 10 of 10
survivor count (dose: 15.0 mg/kg/injection, schedule: Q01DX009 (ip), vehicle: saline): 5 of 6
survivor count (dose: 15.0 mg/kg/injection, schedule: Q01DX009 (ip), vehicle: water): 3 of 6
T/C (dose: 16.0 mg/kg/injection, schedule: Q01DX001 (ip), vehicle: saline): 133 % of control
T/C (dose: 16.0 mg/kg/injection, schedule: Q01DX001 (iv), vehicle: saline): 133 % of control
T/C (dose: 16.0 mg/kg/injection, schedule: Q01DX001 (oral), vehicle: saline): 133 % of control
T/C (dose: 16.0 mg/kg/injection, schedule: Q01DX001 (sc), vehicle: saline): 133 % of control
survivor count (dose: 16.0 mg/kg/injection, schedule: Q01DX006 (iv), vehicle: saline): 10 of 10
survivor count (dose: 16.0 mg/kg/injection, schedule: Q01DX009 (ip), vehicle: saline): 9 of 10
T/C (dose: 16.0 mg/kg/injection, schedule: Q01DX009 (oral), vehicle: saline): 125 % of control [8 of 10 alive]
survivor count (dose: 16.0 mg/kg/injection, schedule: Q01DX009 (sc), vehicle: saline): 7 of 10
survivor count (dose: 16.0 mg/kg/injection, schedule: Q03HX008 (ip), vehicle: saline): 0 of 10
survivor count (dose: 16.0 mg/kg/injection, schedule: Q03HX016 (ip), vehicle: saline): 0 of 10
survivor count (dose: 16.0 mg/kg/injection, schedule: Q03HX024 (ip), vehicle: saline): 0 of 10
survivor count (dose: 24.0 mg/kg/injection, schedule: Q01DX009 (ip), vehicle: saline): 2 of 10
survivor count (dose: 32.0 mg/kg/injection, schedule: Q01DX001 (ip), vehicle: saline): 6 of 10
survivor count (dose: 32.0 mg/kg/injection, schedule: Q01DX001 (iv), vehicle: saline): 1 of 10
T/C [1]: 144 % of control [9 of 10 alive]
survivor count [1]: 5 of 10
survivor count (dose: 32.0 mg/kg/injection, schedule: Q01DX001 (sc), vehicle: saline): 2 of 10
survivor count (dose: 32.0 mg/kg/injection, schedule: Q01DX006 (iv), vehicle: saline): 0 of 10
survivor count (dose: 32.0 mg/kg/injection, schedule: Q01DX009 (ip), vehicle: saline): 0 of 10 (2×)
survivor count (dose: 32.0 mg/kg/injection, schedule: Q01DX009 (oral), vehicle: saline): 0 of 10 (2×)
survivor count (dose: 32.0 mg/kg/injection, schedule: Q01DX009 (sc), vehicle: saline): 0 of 10 and 1 of 10
survivor count (dose: 32.0 mg/kg/injection, schedule: Q04DX003 (ip), vehicle: saline): 10 of 10
survivor count (dose: 48.0 mg/kg/injection, schedule: Q01DX009 (ip), vehicle: saline): 0 of 10
survivor count (dose: 64.0 mg/kg/injection, schedule: Q01DX001 (ip), vehicle: saline): 0 of 10
survivor count (dose: 64.0 mg/kg/injection, schedule: Q01DX001 (iv), vehicle: saline): 0 of 10
survivor count (dose: 64.0 mg/kg/injection, schedule: Q01DX001 (oral), vehicle: saline): 1 of 10
survivor count (dose: 64.0 mg/kg/injection, schedule: Q01DX001 (sc), vehicle: saline): 0 of 10
survivor count (dose: 64.0 mg/kg/injection, schedule: Q01DX009 (oral), vehicle: saline): 0 of 10
survivor count (dose: 64.0 mg/kg/injection, schedule: Q04DX003 (ip), vehicle: saline): 2 of 10
survivor count (dose: 64.0 mg/kg/injection, schedule: Q08DX002 (ip), vehicle: saline): 0 of 10
survivor count (dose: 128.0 mg/kg/injection, schedule: Q01DX001 (ip), vehicle: saline): 0 of 10
survivor count (dose: 128.0 mg/kg/injection, schedule: Q01DX001 (iv), vehicle: saline): 0 of 10
survivor count (dose: 128.0 mg/kg/injection, schedule: Q01DX001 (oral), vehicle: saline): 0 of 10
survivor count (dose: 128.0 mg/kg/injection, schedule: Q01DX001 (sc), vehicle: saline): 0 of 10
survivor count (dose: 128.0 mg/kg/injection, schedule: Q08DX002 (ip), vehicle: saline): 0 of 10
survivor count (dose: 256.0 mg/kg/injection, schedule: Q01DX001 (oral), vehicle: saline): 0 of 10
T/C (dose: 1000.0 micrograms/kg/injection, schedule: Q03HX024 (ip), vehicle: saline): 130 % of control
T/C (dose: 2000.0 micrograms/kg/injection, schedule: Q03HX024 (ip), vehicle: saline): 140 % of control

CCOC(=O)c1cnc(=O)[nH]c1N
survivor count (dose: 100.0 mg/kg/injection, schedule: Q01DX009 (ip), vehicle: saline with Tween-80): 5 of 6
survivor count (dose: 200.0 mg/kg/injection, schedule: Q01DX009 (ip), vehicle: saline with Tween-80): 5 of 6

CCN(CC)c1cc(Cl)c(C=O)cc1Br
survivor count (dose: 100.0 mg/kg/injection, schedule: Q01DX009 (ip), vehicle: Klucel (hydroxypropylcellulose) (HPC)): 6 of 6
